This list was built around the results that the source calls inconclusive (neither active nor inactive); the mix of calls is not that of the screen. Potencies of inconclusive entries are doubtful fits and often do not repeat. Calls of active or inactive are those of the source. Rule for the calls: active = hit-call score of the fitted dose curve at least 0.9, where 1 is the maximum; inconclusive = response in the unintended direction; inactive = score below 0.9.
Columns and labels:
[1] = target: Retinoic acid receptor alpha (Homo sapiens) (UniProt P10276); experiment: ATG_RARa_TRANS: Attagene TRANS-FACTORIAL HepG2 Assay for human Retinoic Acid Receptor alpha (RARa) (AID 2283005);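 for AC50: potency for increased reporter signal meaning RARa activation over DMSO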
How it was run: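 Reporter transcripts, measured by RT-PCR with fluorescent labeling and capillary electrophoresis after 24 h dosing, reflect activity of an exogenous human RARa–GAL4 fusion in transiently transfected HepG2. Fitted for increase relative to DMSO.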

Sequences of proteins named here, by UniProt entry; tags and fusion partners are left off. A change or cut given only in a name is not applied to a line headed by its entry.
UniProt P10276, whole entry, looked up: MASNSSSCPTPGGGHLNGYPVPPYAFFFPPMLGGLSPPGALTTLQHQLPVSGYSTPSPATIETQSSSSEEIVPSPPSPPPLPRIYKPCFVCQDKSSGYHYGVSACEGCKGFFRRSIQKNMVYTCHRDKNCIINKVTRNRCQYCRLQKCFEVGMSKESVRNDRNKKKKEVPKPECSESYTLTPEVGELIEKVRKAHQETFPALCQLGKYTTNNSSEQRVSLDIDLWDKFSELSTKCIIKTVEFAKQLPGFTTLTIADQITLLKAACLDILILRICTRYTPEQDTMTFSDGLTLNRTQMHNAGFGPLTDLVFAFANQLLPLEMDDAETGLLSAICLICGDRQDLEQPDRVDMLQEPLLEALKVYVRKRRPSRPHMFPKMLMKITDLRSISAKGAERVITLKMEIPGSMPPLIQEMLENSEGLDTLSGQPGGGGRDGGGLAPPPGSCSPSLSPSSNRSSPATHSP
UniProt P37231: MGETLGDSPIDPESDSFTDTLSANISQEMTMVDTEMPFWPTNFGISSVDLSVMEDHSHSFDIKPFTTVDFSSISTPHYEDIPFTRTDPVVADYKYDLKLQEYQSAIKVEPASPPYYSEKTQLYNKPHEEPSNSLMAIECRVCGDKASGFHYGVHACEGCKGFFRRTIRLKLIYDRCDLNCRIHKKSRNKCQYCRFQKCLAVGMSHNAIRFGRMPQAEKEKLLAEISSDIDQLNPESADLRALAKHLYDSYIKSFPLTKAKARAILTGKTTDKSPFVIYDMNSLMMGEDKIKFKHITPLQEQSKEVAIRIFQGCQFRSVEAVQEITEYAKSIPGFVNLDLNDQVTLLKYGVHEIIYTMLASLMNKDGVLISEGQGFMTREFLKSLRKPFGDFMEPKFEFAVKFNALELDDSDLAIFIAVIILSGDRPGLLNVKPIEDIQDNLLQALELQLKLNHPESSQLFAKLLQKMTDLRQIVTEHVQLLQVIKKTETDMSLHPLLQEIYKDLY
UniProt O75469: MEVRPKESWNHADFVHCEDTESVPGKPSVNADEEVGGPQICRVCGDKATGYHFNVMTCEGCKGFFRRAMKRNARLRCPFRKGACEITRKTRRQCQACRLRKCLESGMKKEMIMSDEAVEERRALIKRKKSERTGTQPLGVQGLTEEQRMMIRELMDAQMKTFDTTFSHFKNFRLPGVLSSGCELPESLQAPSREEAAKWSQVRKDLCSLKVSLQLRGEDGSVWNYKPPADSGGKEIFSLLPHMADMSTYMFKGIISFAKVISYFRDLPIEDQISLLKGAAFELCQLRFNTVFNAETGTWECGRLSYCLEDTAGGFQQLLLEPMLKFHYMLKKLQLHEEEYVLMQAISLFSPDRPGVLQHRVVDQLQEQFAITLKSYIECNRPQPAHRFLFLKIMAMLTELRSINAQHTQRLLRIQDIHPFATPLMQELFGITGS
UniProt P13631, whole entry, looked up: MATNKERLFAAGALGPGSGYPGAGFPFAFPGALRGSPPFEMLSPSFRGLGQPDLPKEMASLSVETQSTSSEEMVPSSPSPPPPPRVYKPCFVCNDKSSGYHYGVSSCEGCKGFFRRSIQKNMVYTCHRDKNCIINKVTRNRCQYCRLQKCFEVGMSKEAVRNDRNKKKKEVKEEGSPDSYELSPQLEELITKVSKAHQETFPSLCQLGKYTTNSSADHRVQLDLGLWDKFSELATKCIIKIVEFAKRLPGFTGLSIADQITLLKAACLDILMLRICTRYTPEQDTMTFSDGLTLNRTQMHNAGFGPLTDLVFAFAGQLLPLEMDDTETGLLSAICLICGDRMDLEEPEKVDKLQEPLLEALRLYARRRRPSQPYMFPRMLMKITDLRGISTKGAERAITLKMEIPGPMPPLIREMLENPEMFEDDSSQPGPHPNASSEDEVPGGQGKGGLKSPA
UniProt Q92753: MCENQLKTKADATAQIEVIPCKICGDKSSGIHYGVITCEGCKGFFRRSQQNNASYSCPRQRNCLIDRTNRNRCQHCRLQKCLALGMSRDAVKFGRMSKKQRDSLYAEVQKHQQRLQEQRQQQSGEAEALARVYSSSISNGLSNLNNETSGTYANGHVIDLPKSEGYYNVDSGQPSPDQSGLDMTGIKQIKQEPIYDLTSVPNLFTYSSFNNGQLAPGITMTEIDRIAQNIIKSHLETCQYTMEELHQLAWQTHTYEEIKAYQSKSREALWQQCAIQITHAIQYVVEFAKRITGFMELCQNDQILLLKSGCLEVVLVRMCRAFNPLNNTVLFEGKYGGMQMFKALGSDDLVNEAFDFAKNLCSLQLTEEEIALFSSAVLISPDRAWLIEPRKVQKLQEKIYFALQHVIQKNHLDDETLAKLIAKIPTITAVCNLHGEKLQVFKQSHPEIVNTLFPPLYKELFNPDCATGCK
UniProt P51449: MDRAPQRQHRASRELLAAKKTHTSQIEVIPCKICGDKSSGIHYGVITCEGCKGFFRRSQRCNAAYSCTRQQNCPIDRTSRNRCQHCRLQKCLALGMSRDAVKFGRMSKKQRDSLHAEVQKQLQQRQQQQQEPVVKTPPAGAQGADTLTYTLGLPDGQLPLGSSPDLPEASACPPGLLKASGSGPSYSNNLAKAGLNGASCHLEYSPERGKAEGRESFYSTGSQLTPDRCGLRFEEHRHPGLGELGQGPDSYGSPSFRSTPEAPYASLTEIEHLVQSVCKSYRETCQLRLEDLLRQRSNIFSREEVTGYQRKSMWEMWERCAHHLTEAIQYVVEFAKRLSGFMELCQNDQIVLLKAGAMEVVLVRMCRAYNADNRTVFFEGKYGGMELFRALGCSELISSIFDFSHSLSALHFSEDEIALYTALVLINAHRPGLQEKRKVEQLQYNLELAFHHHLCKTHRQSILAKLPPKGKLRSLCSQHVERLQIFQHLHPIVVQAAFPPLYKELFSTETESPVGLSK
UniProt P28702: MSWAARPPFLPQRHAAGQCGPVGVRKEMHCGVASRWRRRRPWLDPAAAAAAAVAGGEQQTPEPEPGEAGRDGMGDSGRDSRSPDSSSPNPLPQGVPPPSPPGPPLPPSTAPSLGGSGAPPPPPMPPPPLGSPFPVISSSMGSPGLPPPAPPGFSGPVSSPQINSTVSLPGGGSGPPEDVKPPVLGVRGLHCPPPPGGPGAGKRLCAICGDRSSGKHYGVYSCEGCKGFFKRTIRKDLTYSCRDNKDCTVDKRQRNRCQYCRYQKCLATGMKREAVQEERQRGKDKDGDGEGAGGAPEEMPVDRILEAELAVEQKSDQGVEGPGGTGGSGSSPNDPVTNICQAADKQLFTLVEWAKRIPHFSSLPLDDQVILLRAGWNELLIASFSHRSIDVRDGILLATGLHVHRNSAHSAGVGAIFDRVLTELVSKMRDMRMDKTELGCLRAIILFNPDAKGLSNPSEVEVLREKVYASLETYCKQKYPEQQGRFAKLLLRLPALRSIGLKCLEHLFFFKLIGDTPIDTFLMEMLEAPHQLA
UniProt P10827: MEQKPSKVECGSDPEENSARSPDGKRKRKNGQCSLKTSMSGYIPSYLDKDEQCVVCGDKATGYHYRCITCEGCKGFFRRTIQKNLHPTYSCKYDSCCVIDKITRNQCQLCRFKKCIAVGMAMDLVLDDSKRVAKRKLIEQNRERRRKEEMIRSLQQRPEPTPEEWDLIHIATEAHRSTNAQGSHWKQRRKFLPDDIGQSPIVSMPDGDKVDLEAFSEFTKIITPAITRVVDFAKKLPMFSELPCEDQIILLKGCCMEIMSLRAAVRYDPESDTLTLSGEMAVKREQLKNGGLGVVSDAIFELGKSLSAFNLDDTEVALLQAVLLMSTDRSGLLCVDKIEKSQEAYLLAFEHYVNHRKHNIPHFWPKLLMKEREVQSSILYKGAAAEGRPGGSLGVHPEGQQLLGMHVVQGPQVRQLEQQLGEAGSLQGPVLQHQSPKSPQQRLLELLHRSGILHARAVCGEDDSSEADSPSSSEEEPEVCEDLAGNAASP
UniProt P11473: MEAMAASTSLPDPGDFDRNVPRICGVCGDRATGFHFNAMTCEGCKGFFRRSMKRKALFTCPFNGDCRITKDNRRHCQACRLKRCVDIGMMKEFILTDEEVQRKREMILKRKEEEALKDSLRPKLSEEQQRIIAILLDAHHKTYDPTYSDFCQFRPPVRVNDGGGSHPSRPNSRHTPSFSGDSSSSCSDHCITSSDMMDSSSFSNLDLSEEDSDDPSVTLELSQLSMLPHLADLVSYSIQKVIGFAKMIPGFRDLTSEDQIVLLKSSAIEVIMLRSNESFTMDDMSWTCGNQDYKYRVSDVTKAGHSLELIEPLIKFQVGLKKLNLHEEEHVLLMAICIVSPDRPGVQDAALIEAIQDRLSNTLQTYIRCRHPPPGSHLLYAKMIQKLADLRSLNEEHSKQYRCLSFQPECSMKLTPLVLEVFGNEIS
UniProt P19793: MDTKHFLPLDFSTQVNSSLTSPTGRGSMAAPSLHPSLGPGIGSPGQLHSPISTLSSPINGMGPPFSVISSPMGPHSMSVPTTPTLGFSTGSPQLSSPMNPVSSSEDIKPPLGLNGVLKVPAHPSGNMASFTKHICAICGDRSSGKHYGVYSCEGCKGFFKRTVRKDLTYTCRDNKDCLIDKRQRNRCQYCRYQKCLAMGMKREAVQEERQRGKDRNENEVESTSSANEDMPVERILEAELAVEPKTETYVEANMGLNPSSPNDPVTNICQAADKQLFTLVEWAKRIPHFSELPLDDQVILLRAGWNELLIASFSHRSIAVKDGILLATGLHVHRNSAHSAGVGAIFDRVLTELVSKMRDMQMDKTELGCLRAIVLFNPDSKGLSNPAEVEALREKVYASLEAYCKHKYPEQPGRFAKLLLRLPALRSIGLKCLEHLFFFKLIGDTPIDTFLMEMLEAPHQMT

[2] = target: Peroxisome proliferator-activated receptor gamma (Homo sapiens) (UniProt P37231); experiment: ATG_PPARg_TRANS: Attagene TRANS-FACTORIAL HepG2 Assay for human Peroxisome Proliferator-activated Receptor-gamma (PPARg) (AID 2283007)
How it was run: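 Human hepatoma HepG2, transient MRTU transfection, 24 h treatment. mRNA reporter signal by RT-PCR plus capillary electrophoresis, fluorescence detection; fitted for increase over DMSO negative control.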

[3] = target: Nuclear receptor subfamily 1 group I member 2 (Homo sapiens) (UniProt O75469); experiment: ATG_PXR_TRANS: Attagene TRANS-FACTORIAL HepG2 Assay for human Pregnane X Receptor (PXR) (AID 2283008)
How it was run: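 Trans-factorial format: exogenous NR-Gal4 fusion activity, not endogenous factor, in transfected human HepG2 liver cells. After 24 h dosing, RNA isolated, reverse-transcribed, amplified and resolved by capillary electrophoresis; induction scored versus DMSO.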

[4] = target: human Retinoic Acid Receptor gamma (RARg), RARG (gene 5916) (UniProt P13631); experiment: ATG_RARg_TRANS: Attagene TRANS-FACTORIAL HepG2 Assay for human Retinoic Acid Receptor gamma (RARg) (AID 2283009);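 for AC50: AC50 is for reporter induction above DMSO meaning RARg activation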
How it was run: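 Transactivation of exogenous RARg-Gal4 fusion measured as reporter transcript induction after 24 h in transfected HepG2 cells. RNA reverse-transcribed, amplified, fluorescently labeled and resolved by capillary electrophoresis; increase relative to DMSO.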

[5] = target: human RAR-related Orphan Receptor beta (RORb), RORB (gene 6096) (UniProt Q92753); experiment: ATG_RORb_TRANS: Attagene TRANS-FACTORIAL HepG2 Assay for human RAR-related Orphan Receptor beta (RORb) (AID 2283010);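 for AC50: potency for increased reporter mRNA meaning activation of RORb-Gal4 chimera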
How it was run: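 Read-out is reporter mRNA induction, quantified by RT-PCR with fluorescent capillary electrophoresis, 24 h post-dose in transiently transfected HepG2 expressing exogenous NR-Gal4 chimera. Activity fitted upward versus DMSO.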

[6] = target: human RAR-related Orphan Receptor gamma (RORg), RORC (gene 6097) (UniProt P51449); experiment: ATG_RORg_TRANS: Attagene TRANS-FACTORIAL HepG2 Assay for human RAR-related Orphan Receptor gamma (RORg) (AID 2283011);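 for AC50: potency for induction of reporter transcripts above DMSO so activators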
How it was run: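 Chimeric RORg-Gal4 transactivation in transfected HepG2; 24 h exposure; RT-PCR/capillary electrophoresis readout of reporter mRNA, DMSO baseline.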

[7] = target: human Retinoid X Receptor beta (RXRb), RXRB (gene 6257) (UniProt P28702); experiment: ATG_RXRb_TRANS: Attagene TRANS-FACTORIAL HepG2 Assay for human Retinoid X Receptor beta (RXRb) (AID 2283013)
How it was run: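 Readout is reporter transcript induction after 24 h dosing. It is measured by RT-PCR of total RNA followed by fluorescent capillary electrophoresis. HepG2 liver cells carry transfected multiple reporter units driven by an exogenous RXRb-Gal4 fusion; activity is relative to DMSO.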

[8] = target: human Thyroid Receptor alpha (THRa1), THRA (gene 7067) (UniProt P10827); experiment: ATG_THRa1_TRANS: Attagene TRANS-FACTORIAL HepG2 Assay for human Thyroid Receptor alpha (THRa1) (AID 2283014)
How it was run: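 Measured here is mRNA from a GAL4-UAS reporter in transfected HepG2 cells carrying a Gal4-fused receptor, 24 h post-dose. DMSO served as negative control and baseline.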

[9] = target: human Vitamin D Receptor (VDR), VDR (gene 7421) (UniProt P11473); experiment: ATG_VDR_TRANS: Attagene TRANS-FACTORIAL HepG2 Assay for human Vitamin D Receptor (VDR) (AID 2283022)
How it was run: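 Multiplexed TRANS reporter in HepG2; 24 h treatment; reporter mRNA by RT-PCR plus capillary electrophoresis; upregulation scored relative to DMSO.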

[10] = target: Retinoic acid receptor RXR-alpha (Homo sapiens) (UniProt P19793); experiment: ATG_RXRa_TRANS: Attagene TRANS-FACTORIAL HepG2 Assay for human Retinoid X Receptor alpha (RXRa) (AID 2283012)
How it was run: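 TRANS format reporting activity of exogenous RXRa-Gal4 chimera in transiently transfected HepG2, 24 h exposure. Reporter transcripts quantified by RT-PCR with capillary electrophoresis, with gain of signal scored relative to DMSO.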

Measured: AC50

O=C(O)c1ccc2c(c1)C(=O)OC2=O
inconclusive: [1] 179 µM | [2] 100 µM | [3] 100 µM | [4] 100 µM | [5] 100 µM | [10] 100 µM | [7] 100 µM | [8] 100 µM

COc1ccccc1C=O
inactive: [5] | [10] | [8]
inconclusive: [1] 19.8 µM | [2] 0.0823 µM | [3] 100 µM | [4] 0.349 µM | [6] 100 µM | [9] 16.5 µM

COCCO
inactive: [1] | [4] | [6]
inconclusive: [2] 100 µM | [3] 100 µM | [5] 72.9 µM | [7] 100 µM

CC[C@H](NC(=O)c1cc(F)ccc1NS(=O)(=O)c1cccc2cccnc12)c1ccccc1
active: [2] 13.1 µM | [3] 0.0124 µM
inconclusive: [1] 100 µM | [4] 100 µM | [5] 20.5 µM | [6] 24.7 µM | [7] 25.8 µM | [8] 4.46 µM

CC(C)CCCCCCc1ccc(OCCOCCO)cc1
inconclusive: [2] 50 µM | [5] 50 µM | [10] 50 µM | [8] 50 µM | [9] 50 µM
active: [1] 10.2 µM
inactive: [3] | [4] | [7]

O=C(O)CN(CC(=O)O)CC(=O)O
inconclusive: [1] 91.5 µM | [2] 91.5 µM | [3] 91.5 µM | [5] 91.5 µM | [8] 33.9 µM

CC(CCC(=O)O)(c1ccc(O)cc1)c1ccc(O)cc1
inactive: [6] | [10]
inconclusive: [1] 168 µM | [2] 100 µM | [3] 27.6 µM | [5] 100 µM | [7] 0.109 µM

O=CC1CC1
inconclusive: [2] 100 µM | [3] 100 µM | [5] 0.0823 µM | [10] 100 µM | [7] 100 µM | [9] 1.22 µM
inactive: [1]
